PubChem BioAssay AID1159584 – Peter MacCallum Cancer Centre, 2016

- Aim: 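Genes whose loss is lethal only together with E-cadherin loss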 (primary screen)
- Cell system: human MCF10A breast epithelial cells, parental and CDH1-null
- Reagent: siRNA against human genes
- Read-out: 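ATP luminescence (CellTiter-Glo) viability per line relative to mean mock wells over all plates, and the ratio of CDH1-null to parental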
- Direction: CDH1-null / parental viability ratio: higher = CDH1-null cells survive relatively better than parental
This is a random part of about 18,000 reagents tested. Not all columns of the deposit are shown. Not stated in the record: the amount of reagent, the time to read-out.

APBA3 | CDH1-null / parental viability ratio = 1.06
OR4Q3 | CDH1-null / parental viability ratio = 1.31
ACER1 | CDH1-null / parental viability ratio = 0.84
PPP6R2 | CDH1-null / parental viability ratio = 1.03
ATP11AUN | CDH1-null / parental viability ratio = 1.1
OR6C3 | CDH1-null / parental viability ratio = 1.38
ZNF197 | CDH1-null / parental viability ratio = 0.98
GTF2H1 | CDH1-null / parental viability ratio = 1.08
RPS6KL1 | CDH1-null / parental viability ratio = 0.82
RPL32 | CDH1-null / parental viability ratio = 1.24
ENTPD1 | CDH1-null / parental viability ratio = 1.03
TPSG1 | CDH1-null / parental viability ratio = 1.06
GPR158 | CDH1-null / parental viability ratio = 0.8

Copied from above for reference:
RPL32 | CDH1-null / parental viability ratio = 1.24
ENTPD1 | CDH1-null / parental viability ratio = 1.03
TPSG1 | CDH1-null / parental viability ratio = 1.06
GPR158 | CDH1-null / parental viability ratio = 0.8

Continued:
WFIKKN2 | CDH1-null / parental viability ratio = 1.31
TMEM183BP | CDH1-null / parental viability ratio = 1.23
ATPSCKMT | CDH1-null / parental viability ratio = 1.27
VCPIP1 | CDH1-null / parental viability ratio = 0.94
GSTA4 | CDH1-null / parental viability ratio = 0.89
ST8SIA6 | CDH1-null / parental viability ratio = 1.03
DPYSL4 | CDH1-null / parental viability ratio = 1.18
TTC6 | CDH1-null / parental viability ratio = 1.19
ABCA2 | CDH1-null / parental viability ratio = 0.85
PCDHGA9 | CDH1-null / parental viability ratio = 1.26
OAS3 | CDH1-null / parental viability ratio = 0.91
H3C6 | CDH1-null / parental viability ratio = 1.15
RGS13 | CDH1-null / parental viability ratio = 0.89
FAM110D | CDH1-null / parental viability ratio = 1
ELMOD2 | CDH1-null / parental viability ratio = 1.03
TTLL2 | CDH1-null / parental viability ratio = 0.92
SENP2 | CDH1-null / parental viability ratio = 1.25
ATMIN | CDH1-null / parental viability ratio = 0.8
NOS1 | CDH1-null / parental viability ratio = 0.96
SLC25A1 | CDH1-null / parental viability ratio = 0.99
MACO1 | CDH1-null / parental viability ratio = 1.01
BRAT1 | CDH1-null / parental viability ratio = 0.73
